These are yes or no findings as the source states them, for the method shown. Binding seen in cells or lysates may run through a third protein.
Molecular target: His-tagged Keap1 (Keap1-His) purified from E. coli (UniProt Q14145)
Test: pull-down; Keap1-His purified from E. coli incubated with in vitro transcribed/translated [35S]-labeled proteins; pulled down with nickel beads; SDS-PAGE and autoradiography; only the target purified

Protein sequences, listed by entry. Tags and fused reporters are not part of them.
UniProt Q14145: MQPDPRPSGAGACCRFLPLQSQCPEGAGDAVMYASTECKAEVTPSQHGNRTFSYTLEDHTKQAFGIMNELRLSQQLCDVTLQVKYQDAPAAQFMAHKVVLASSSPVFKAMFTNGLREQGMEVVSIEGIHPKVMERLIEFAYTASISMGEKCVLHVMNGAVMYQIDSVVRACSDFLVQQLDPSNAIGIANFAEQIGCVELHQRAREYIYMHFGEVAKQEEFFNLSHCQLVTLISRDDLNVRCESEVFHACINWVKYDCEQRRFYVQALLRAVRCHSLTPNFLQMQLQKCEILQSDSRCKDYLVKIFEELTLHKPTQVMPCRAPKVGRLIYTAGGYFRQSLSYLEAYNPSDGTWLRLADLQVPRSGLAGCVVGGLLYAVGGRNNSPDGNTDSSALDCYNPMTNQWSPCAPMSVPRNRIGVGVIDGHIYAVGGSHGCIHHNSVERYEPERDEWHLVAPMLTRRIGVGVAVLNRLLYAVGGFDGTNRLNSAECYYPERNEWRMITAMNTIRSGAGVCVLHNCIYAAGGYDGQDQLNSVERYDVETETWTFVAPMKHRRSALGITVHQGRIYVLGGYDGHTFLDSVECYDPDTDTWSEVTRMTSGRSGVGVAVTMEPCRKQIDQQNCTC

binding: no binding
B1: full-length ENC1 (E-FL), in vitro translated, [35S]-labeled (protein, UniProt O14682 1-589)
chain: MSVSVHENRKSRASSGSINIYLFHKSSYADSVLTHLNLLRQQRLFTDVLLHAGNRTFPCHRAVLAACSRYFEAMFSGGLKESQDSEVNFDNSIHPEVLELLLDYAYSSRVIINEENAESLLEAGDMLEFQDIRDACAEFLEKNLHPTNCLGMLLLSDAHQCTKLYELSWRMCLSNFQTIRKNEDFLQLPQDMVVQLLSSEELETEDERLVYESAINWISYDLKKRYCYLPELLQTVRLALLPAIYLMENVAMEELITKQRKSKEIVEEAIRCKLKILQNDGVVTSLCARPRKTGHALFLLGGQTFMCDKLYLVDQKAKEIIPKADIPSPRKEFSACAIGCKVYITGGRGSENGVSKDVWVYDTLHEEWSKAAPMLVARFGHGSAELKHCLYVVGGHTAATGCLPASPSVSLKQVEHYDPTINKWTMVAPLREGVSNAAVVSAKLKLFAFGGTSVSHDKLPKVQCYDQCENRWTVPATCPQPWRYTAAAVLGNQIFIMGGDTEFSACSAYKFNSETYQWTKVGDVTAKRMSCHAVASGNKLYVVGGYFGIQRCKTLDCYDPTLDVWNSITTVPYSLIPTAFVSTWKHLPS
modifications: [35S]-methionine label

— paper PMC2675063
